The source of these data is US20110262439A1 (Amgen, published 2011).

Results are given in words; binding and its absence hold for the method and conditions named. A result given as binding can be weak or reduced; the word gives no strength.

B1: ME06B7HL (scFv)
scFv: EVQLLEQSGAELVRPGTSVKISCKATGYTFTTYWLGWVKQRPGHGLEWIGEIHPGGGYTNYNEKFKGKATLTADTSSSTAYMQLSRLTSDDSAIYYCARSGYDYGSSYDYYGMDYWGQGTTVTVSSGGGGSGGGGSGGGGSELVMTQSPSSLSASLGERVSLTCRASQDIGSSLNWLQQEPDGTIKRLIYATSSLDSGVPKRFSGSRSGSDYSLTISSLESEDFVDYYCLQYASSPYTFGGGTKLEIKTGDYKDDDDKHHHHHH
notes: murine anti-c-MET scFv; E. coli periplasmic preparation
B2: ME99B1HL (scFv)
scFv: EVQLLEQSGAELVRPGTSVKISCKATGYTFSNYWISWVKYRPGHGLEWIGDIYPGGSYTNYNEKFKGKVTLTADTSSRTAYMQLSGLTFEDSAIYYCARSGYDYGSDYDYHGMDYWGQGTTVTVSSGGGGSGGGGSGGGGSELQMTQSPASLSASVGETVTITCRASENIYSNLAWYQQKQGKSPQLLVYAATNLADGVPSRFSGSRSGSDYSLTISSLESEDFVDYYCLQYASYPYTFGGGTKLEIKTGDYKDDDDKHHHHHH
notes: as for B1
B3: ME75H6HL (scFv)
scFv: EVQLLEQSGAELVRPGTSVKMSCKAAGYTFTKYWIGWVKQRPGHGLEWIGDIHPGGGYANYNEKFKGKATLTADTSSSTAYMQLSRLTSDDSAIYYCARSGYDYGSSYDYHGMDFWGQGTTVTVSSGGGGSGGGGSGGGGSELQMTQSPASLSASVGEPVTFTCRASENIYSYLAWYQQKQGKSPQLLIYGATNLADGMSSRFSGSGSGRQYSLKISSLHPDDVATYYCQNVLSTPYTFGGGTKLEIKTGDYKDDDDKHHHHHH
notes: as for B1
B4: ME05B7HL (scFv)
scFv: EVQLLEQSGAELVRPGTSVKISCKTTGYTFGYYWISWLKQRPGHGLEWIGDIYPGGGYTNYHEKFKGKVTLTADTSSRTAYMQLSSLTFEDSAIYYCARSGYDYGSDYDYHGMDYWGQGTTVTVSSGGGGSGGGGSGGGGSELVMTQTPSSLSASLGDRVTISCRASQGISNYLNWYQQKPDGSVKLLIYYTSRLHSGVPSRFSGSGSGTDYSLTISNLDQEDIATYFCQQGNTLPWTFGGGTKLEIKTGDYKDDDDKHHHHHH
notes: as for B1
B5: ME06C7HL (scFv)
scFv: EVQLLEQSGAEVVRPGTSVKMSCKAAGYTFTKYWIGWVKQRPGHGLEWIGDIHPGGGFANYNEKFKGKATLTADTSSSTAYMQLSRLTSDDSAIYYCARSGYDYGSSYDYHGMDYWGQGTTVTVSSGGGGSGGGGSGGGGSELQMTQSPTSLAVSLGQRATISCRASQTVYYDGNNYMNWYQHKPGQPPKLLIYATSNLESGIPARFSGSGSGTDFTLNIHPVEAEDAATYYCQQSYEDPYTFGGGTKLEIKTGDYKDDDDKHHHHHH
notes: as for B1
B6: ME06D1HL (scFv)
scFv: EVQLLEQSGAEVVRPGTSVKMSCKAAGYTFTKYWIGWVKQRPGHGLEWIGDIHPGGGFANYNEKFKGKATLTADTSSSTAYMQLSRLTSDDSAIYYCARSGYDYGSSYDYHGMDYWGQGTTVTVSSGGGGSGGGGSGGGGSELVMTQSPSSLTVTAGEKVTMSCKSSQSLLNSGNQKNYLAWYQQKPGQPPKLLIYGASTRESGVPDRFTGSGSGTDFTLTISSVQAEDLADYFCQQHYSTPYTFGGGTKLEIKTGDYKDDDDKHHHHHH
notes: as for B1
B7: ME06D2HL (scFv)
scFv: EVQLLEQSGADLVRPGTSVKLSCKAAGYTFSRYWISWIRQRPGHGLEWIGEIYPGGGYGNYNENFKDKVTLTADTSSSTAYMQLSSLTSEDSAIYYCARSGYDYGSKYDYYGLDYWGQGTTVTVSSGGGGSGGGGSGGGGSELVMTQSPSSMYASLGERVTITCKASQDINSYLSWFQQKPGKSPKTLIYRANRLVDGVPSRFSGSGSGQDYSLTISSLEYEDMGIYYCLQYDAFPPTFGAGTKLEIKTGDYKDDDDKHHHHHH
notes: as for B1
B8: ME06C6HL (scFv)
scFv: EVQLLEQSGAELVRPGTSVKIPCKATGYTFSYYWIGWVKQRPGHGLEWIGDIYPGGGYSNYNEKFKGKATLTADTSSSTAYMQLSGLTSEDSAIYYCARSGYDYGSDYDYHGLDYWGQGTTVTVSSGGGGSGGGGSGGGGSELVLTQSPASLAVSLGQRATISCRASESVEYYGTSLMQWYQQKPGQPPKLLIYAASNVESGVPARFSGSGSGTDFSLNIHPVEEDDIAMYFCQQSRKVPYTFGGGTKLEIKTGDYKDDDDKHHHHHH
notes: as for B1
B9: ME05F6HL (scFv)
scFv: EVQLLEQSGAEVVRPGTSVKMSCKAAGYTFTKYWIGWVKQRPGHGLEWIGDIHPGGGFANYNEKFKGKATLTADTSSSTAYMQLSRLTSDDSAIYYCARSGYDYGSSYDYHGMDYWGQGTTVTVSSGGGGSGGGGSGGGGSELVMTQSPSSLSASLGERVSLTCRASQEISGYLSWLQQKPDGTIKRLIYAASTLDSGVPKRFSGSRSGSDYSLTISSLESEDFADYYCLQYASYPPTFGGGTKLEIKTGDYKDDDDKHHHHHH
notes: as for B1
B10: ME06E10HL (scFv)
scFv: EVQLLEQSGADLVRPGTSVKLSCKAAGYTFSRYWISWIRQRPGHGLEWIGEIYPGGGYGNYNENFKDKVTLTADTSSSTAYMQLSSLTSEDSAIYYCARSGYDYGSKYDYYGLDYWGQGTTVTVSSGGGGSGGGGSGGGGSELVMTQSPSSLSASLGERVSLTCRASQEISGYLSWLQQKPDGTIKRLIYAASTLDSGVPKRFSGSRSGSDYSLTISSLESEDFADYYCLQYASSPYTFGGGTKLEIKTGDYKDDDDKHHHHHH
notes: as for B1
B11: ME06F2HL (scFv)
scFv: EVQLLEQSGAELMKPGASVKISCKATGYTFSNYWIGWVKQRPGHGLEWIGDIYPGGSYTNYNEKFKGKVTLTADTSSRTAYMQLSSLTFEDSAIYYCARSGYDYASDYDYHGMDYWGQGTTVTVSSGGGGSGGGGSGGGGSELVLTQSPSSMSASLGDRITITCQATQDIVKNLNWYQQKPGKPPSFLIYYATELAEGVPSRFSGSGSGSDYSLTISNLESEDFADYYCLQFYEFPYTFGGGTKLEIKTGDYKDDDDKHHHHHH
notes: as for B1

The target in the experiment is human c-MET (extracellular domains fused to a truncated variant of human EpCAM) (human). The experiment is described as follows: FACS, CHO transfectants, periplasmic preparation.
With B1, the binding entry is “binds”.

As for B2, the binding result is “binds”.

With B3, the binding entry is “binds”.

Turning to B4, the binding result is recorded as “binds”.

Consider B5, for which the binding entry was “binds”.

Turning to B6, the binding result is given as “binds”.

For B7, the binding entry is “binds”.

Turning to B8, the binding result is listed as “binds”.

For the molecule B9, the binding entry was “binds”.

On to B10, for which the binding entry is “binds”.

For the molecule B11, the binding entry is recorded as “binds”.
